Assay [1] concerns the target T1, Sec24d (full-length, wild type) (H. sapiens) (UniProt O94855).
T1 sequence: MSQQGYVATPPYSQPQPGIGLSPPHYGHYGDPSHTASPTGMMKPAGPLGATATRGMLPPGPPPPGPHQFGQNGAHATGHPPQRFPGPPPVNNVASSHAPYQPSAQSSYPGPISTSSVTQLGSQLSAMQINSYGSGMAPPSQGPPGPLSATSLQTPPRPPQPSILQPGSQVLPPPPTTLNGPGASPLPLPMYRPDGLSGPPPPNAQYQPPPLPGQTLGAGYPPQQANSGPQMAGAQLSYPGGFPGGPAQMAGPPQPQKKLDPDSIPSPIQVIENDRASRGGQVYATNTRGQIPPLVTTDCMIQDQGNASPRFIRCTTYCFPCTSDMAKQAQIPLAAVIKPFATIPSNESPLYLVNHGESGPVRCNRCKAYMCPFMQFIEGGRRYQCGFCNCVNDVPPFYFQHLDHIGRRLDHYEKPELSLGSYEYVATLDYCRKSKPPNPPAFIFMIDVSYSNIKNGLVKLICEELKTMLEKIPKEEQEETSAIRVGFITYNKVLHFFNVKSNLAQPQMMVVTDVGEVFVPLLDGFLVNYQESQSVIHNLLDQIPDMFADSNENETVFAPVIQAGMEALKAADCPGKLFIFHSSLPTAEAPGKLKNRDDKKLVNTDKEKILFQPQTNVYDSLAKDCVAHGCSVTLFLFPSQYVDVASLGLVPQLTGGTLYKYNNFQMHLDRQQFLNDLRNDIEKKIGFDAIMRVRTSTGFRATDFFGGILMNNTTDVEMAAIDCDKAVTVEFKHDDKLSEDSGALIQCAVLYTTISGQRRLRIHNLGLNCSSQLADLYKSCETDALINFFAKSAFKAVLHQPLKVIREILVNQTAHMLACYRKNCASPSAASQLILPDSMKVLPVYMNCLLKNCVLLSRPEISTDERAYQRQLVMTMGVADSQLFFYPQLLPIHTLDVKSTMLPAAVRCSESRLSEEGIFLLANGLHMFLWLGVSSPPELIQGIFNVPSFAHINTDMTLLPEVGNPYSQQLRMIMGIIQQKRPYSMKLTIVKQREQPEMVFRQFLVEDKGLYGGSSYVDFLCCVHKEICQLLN
Kind of assay: co-purification; complex purified from High Five insect cell lysate by the N-terminal His6 tag of one subunit (HisTrap HP), then HiTrap Q and Superdex 200 in 20 mM Tris-HCl pH 7.5, 500 mM NaCl, 1 mM DTT.

Chains of the proteins cited; added tags and fusions are not shown.
UniProt Q15436: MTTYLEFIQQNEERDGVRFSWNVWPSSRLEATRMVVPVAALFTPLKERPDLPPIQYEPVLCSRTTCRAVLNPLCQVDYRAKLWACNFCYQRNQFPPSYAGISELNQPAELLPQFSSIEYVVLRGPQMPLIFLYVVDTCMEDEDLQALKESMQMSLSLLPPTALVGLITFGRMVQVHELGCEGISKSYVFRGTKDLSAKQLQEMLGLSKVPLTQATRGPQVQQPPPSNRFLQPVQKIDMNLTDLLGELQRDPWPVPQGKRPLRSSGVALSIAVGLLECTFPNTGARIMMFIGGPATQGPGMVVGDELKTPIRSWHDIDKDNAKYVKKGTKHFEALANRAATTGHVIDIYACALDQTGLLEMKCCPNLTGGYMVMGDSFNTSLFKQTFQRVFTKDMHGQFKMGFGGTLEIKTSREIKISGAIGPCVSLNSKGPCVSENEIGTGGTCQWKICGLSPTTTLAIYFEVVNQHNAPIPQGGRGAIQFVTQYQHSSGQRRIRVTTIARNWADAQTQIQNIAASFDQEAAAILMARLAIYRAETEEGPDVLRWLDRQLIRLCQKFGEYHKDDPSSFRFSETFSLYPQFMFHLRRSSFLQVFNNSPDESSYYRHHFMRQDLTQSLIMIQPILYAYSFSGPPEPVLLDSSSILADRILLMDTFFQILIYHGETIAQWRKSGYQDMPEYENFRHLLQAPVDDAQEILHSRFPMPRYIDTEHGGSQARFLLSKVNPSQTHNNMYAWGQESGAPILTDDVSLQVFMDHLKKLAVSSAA

Assay [2] deals with T2, Sec24d L750W (full-length) (H. sapiens) (UniProt O94855).
T2 sequence: T1 sequence with L750W
The assay is described as above.

Positions count from the first letter of the chain named. These are yes or no findings as the source states them, for the method shown. Some binding calls cover weakened binding; strength is not graded here.

Here are results for one substance from paper PMC5464768, “ER retention is imposed by COPII protein sorting and attenuated by 4-phenylbutyrate” (eLife, 2017).

With “Sec23a (full-length) (from UniProt Q15436 1-765)”, the binding entry in assay [1] and in assay [2] was “binds” throughout.
